Measurements reported in PubChem BioAssay AID1508597 (Cure First, 2020).

Screen: 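Survival screen with siRNA in ovarian cancer cells derived from patients, with or without rucaparib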 (primary screen)
System: human ovarian carcinoma lines grown from tumours: OCI-P5x (papillary serous) and OCI-C5x (clear cell)
Knock-down reagent: siRNA pool against human genes, 1.25 pmol siRNA per well
Timing: 72 h or 96 h, depending on the cell culture
Treatment: rucaparib 20 µM (about IC30) or vehicle, present until read-out
Rucaparib or vehicle: Rucaparib
Cell line: OCI-C5x (clear cell)
Measurement: 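Luminescent ATP-based viability assay read 72 or 96 h after transfection, depending on culture, given as normalised percent viability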
Direction: viability, normalised: higher = more viable cells remaining
Active means: 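a well counts as a hit if its normalised viability is under 80 percent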
Calls: active = viability under 80%; inactive = viability 80% or more
This is an unselected part of the about 2,100 reagents, in one setting of the screen. 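Calls flag viability under 80% in either arm, not effects specific to rucaparib; the reference for percent is not stated.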 A reagent listed more than once was tested more than once; the source does not tell the runs apart. No sequences are given here. Not given: the 100% reference.

Target gene | technical replicate | viability, normalised (%) | Call
CERK (ceramide kinase) | 1 | 52.6 | active
CERK (ceramide kinase) | 2 | 48.8 | active
CERK (ceramide kinase) | 3 | 39.1 | active
CILK1 (ciliogenesis associated kinase 1) | 1 | 44.7 | active
CILK1 (ciliogenesis associated kinase 1) | 2 | 39.9 | active
CILK1 (ciliogenesis associated kinase 1) | 3 | 32.8 | active
CHMP4C (charged multivesicular body protein 4C) | 1 | 62.9 | active
CHMP4C (charged multivesicular body protein 4C) | 2 | 38.2 | active
CHMP4C (charged multivesicular body protein 4C) | 3 | 50.8 | active
MCM2 (minichromosome maintenance complex component 2) | 1 | 55.7 | active
MCM2 (minichromosome maintenance complex component 2) | 2 | 59.1 | active
MCM2 (minichromosome maintenance complex component 2) | 3 | 54.4 | active
PDK4 (pyruvate dehydrogenase kinase 4) | 1 | 64.9 | active
PDK4 (pyruvate dehydrogenase kinase 4) | 2 | 81.1 | inactive
PDK4 (pyruvate dehydrogenase kinase 4) | 3 | 51.3 | active
PHF12 (PHD finger protein 12) | 1 | 40.9 | active
PHF12 (PHD finger protein 12) | 2 | 34.7 | active
PHF12 (PHD finger protein 12) | 3 | 52.3 | active
FGR (FGR proto-oncogene, Src family tyrosine kinase) | 1 | 53.3 | active
FGR (FGR proto-oncogene, Src family tyrosine kinase) | 2 | 45.9 | active
FGR (FGR proto-oncogene, Src family tyrosine kinase) | 3 | 47.1 | active
GPX4 (glutathione peroxidase 4) | 1 | 56.2 | active
GPX4 (glutathione peroxidase 4) | 2 | 46.1 | active
GPX4 (glutathione peroxidase 4) | 3 | 46.9 | active

Single entries from the entries so far:
FGR (FGR proto-oncogene, Src family tyrosine kinase), technical replicate 3, Call = active
CILK1 (ciliogenesis associated kinase 1), technical replicate 1, viability, normalised (%): 44.7
Under “viability, normalised (%)”, PHF12 (PHD finger protein 12), technical replicate 1 reads 40.9
For “viability, normalised (%)”, PHF12 (PHD finger protein 12), technical replicate 3 is entered as 52.3
CILK1 (ciliogenesis associated kinase 1), technical replicate 2, viability, normalised (%): 39.9

Next entries follow.
Target gene | technical replicate | viability, normalised (%) | Call
LSM1 (LSM1 homolog, mRNA degradation associated) | 1 | 58.1 | active
LSM1 (LSM1 homolog, mRNA degradation associated) | 2 | 52.4 | active
LSM1 (LSM1 homolog, mRNA degradation associated) | 3 | 46.3 | active
ERCC6 (ERCC excision repair 6, chromatin remodeling factor) | 1 | 34.7 | active
ERCC6 (ERCC excision repair 6, chromatin remodeling factor) | 2 | 37.7 | active
ERCC6 (ERCC excision repair 6, chromatin remodeling factor) | 3 | 40.2 | active
MAGI2 | 1 | 35.2 | active
MAGI2 | 2 | 41.9 | active
MAGI2 | 3 | 42.4 | active
POLR2K (RNA polymerase II, I and III subunit K) | 1 | 53.9 | active
POLR2K (RNA polymerase II, I and III subunit K) | 2 | 57.7 | active
POLR2K (RNA polymerase II, I and III subunit K) | 3 | 55 | active
ERN1 (endoplasmic reticulum to nucleus signaling 1) | 1 | 47.5 | active
ERN1 (endoplasmic reticulum to nucleus signaling 1) | 2 | 37.8 | active
ERN1 (endoplasmic reticulum to nucleus signaling 1) | 3 | 44.8 | active
PRDM9 (PR/SET domain 9) | 1 | 41.7 | active
PRDM9 (PR/SET domain 9) | 2 | 39.5 | active
PRDM9 (PR/SET domain 9) | 3 | 38.8 | active
ERRFI1 (ERBB receptor feedback inhibitor 1) | 1 | 58.1 | active
ERRFI1 (ERBB receptor feedback inhibitor 1) | 2 | 48.4 | active
ERRFI1 (ERBB receptor feedback inhibitor 1) | 3 | 60.8 | active
RAD21 (RAD21 cohesin complex component) | 1 | 49 | active
RAD21 (RAD21 cohesin complex component) | 1 | 53.1 | active
RAD21 (RAD21 cohesin complex component) | 2 | 71.5 | active
RAD21 (RAD21 cohesin complex component) | 2 | 59.5 | active
RAD21 (RAD21 cohesin complex component) | 3 | 56.2 | active
RAD21 (RAD21 cohesin complex component) | 3 | 52.6 | active
H1-9P (H1.9 linker histone, pseudogene) | 1 | 40.7 | active
H1-9P (H1.9 linker histone, pseudogene) | 2 | 31.3 | active
H1-9P (H1.9 linker histone, pseudogene) | 3 | 38.1 | active
MAST3 (microtubule associated serine/threonine kinase 3) | 1 | 46.3 | active
MAST3 (microtubule associated serine/threonine kinase 3) | 2 | 47.7 | active
MAST3 (microtubule associated serine/threonine kinase 3) | 3 | 54.1 | active
